Source: paper PMC4859805, “Molecular mechanism of activation-triggered subunit exchange in Ca^2+/calmodulin-dependent protein kinase II” (eLife, 2016)
These are yes or no findings as the source states them, for the method shown. Some binding calls cover weakened binding; strength is not graded here.

T1: human CaMKII-α hub domain (human), Q9UQM7
T1 chain: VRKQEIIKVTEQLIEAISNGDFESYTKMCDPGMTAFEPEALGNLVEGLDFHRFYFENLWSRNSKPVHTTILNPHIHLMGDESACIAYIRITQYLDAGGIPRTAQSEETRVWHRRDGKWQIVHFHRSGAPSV

B1: Peptide E (human CaMKII-α 290-309, … variant) (peptide)
peptide: LKKFNAERKLKGAILTTMLA
B2: Peptide F (human CaMKII-α 290-309, … variant) (peptide)
peptide: LKKFNARRKLEGAILTTMLA
B3: Peptide G (human CaMKII-α 290-309, … variant) (peptide)
peptide: LKEFNAERKLEGAILTTMLA

Key:
[1] = molecular target: human CaMKII-α hub domain (human) (UniProt Q9UQM7); experiment: fluorescence polarisation; competition: 2 nM BODIPY labelled peptide bound to 30 μM hub, unlabeled peptide 0-500 μM added; KD from a non-linear fit assuming one peptide site per subunit and equal KD of labelled and unlabeled peptide; both purified
[2] = molecular target: T1, human CaMKII-α hub domain (human), …; experiment: as above; details: remark: other sources report otherwise

Binder	binding [1]	binding [2]
B1	binds weakly	–
B2	binds weakly	–
B3	–	no binding (tested: 500 μM)
